Assay results published in PubChem BioAssay AID206 (DTP/NCI, 2004).
The list is a part of this screen's results and no random one: it is rich in T/C values a quarter to a half above the control, in often repeated tests (any T/C) and in doses without a T/C. Other doses and runs of a compound stand elsewhere. T/C: endpoint of the treated group in % of that of the vehicle group. Schedules are NCI's codes, read here as Q, the interval in days (D) or hours (H), X, the number of doses. Some T/C values are followed by the survivors on the day toxicity was checked, most often the fifth; without a count, all were alive then. Some entries give survivors of the animals treated and no T/C: the source files T/C as zero there, which appears to mark a toxic dose or a test without result, not a measured value. Counts of survivors are from the toxicity check (mostly the fifth day) where no day follows; animals may have died later. Some entries were tested several times; the values are given in rising order.

Test system: nude mice, HT29 intrarenal xenograft, tumor weight T/C
Experiment: NCI In Vivo Anticancer Drug Screen. Data for tumor model HT29;CX-1 Human Adenocarcinoma (MER+) (intrarenal inoculation) in NU/NU Swiss (nude) mice
Settings: T/C endpoint: mean tumor weight change, higher T/C = larger tumour
How it was run: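 Mice with transplanted tumors are dosed with compound while controls get vehicle only. Survival or tumor burden is then assessed per group, and the treated value is expressed relative to control.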

[1] = dose: 300.0 mg/kg/injection, schedule: Q04DX004 (sc), vehicle: Klucel (hydroxypropylcellulose) (HPC)

O=NN(CCCl)C(=O)NCCO
survivor count (dose: 25.0 mg/kg/injection, schedule: Q04DX004 (sc), vehicle: water): 1 of 3 on day 15 | survivor count (dose: 50.0 mg/kg/injection, schedule: Q04DX004 (sc), vehicle: water): 0 of 3 on day 15 | survivor count (dose: 100.0 mg/kg/injection, schedule: Q04DX004 (sc), vehicle: water): 0 of 3 on day 15

NC(CCl)=NCC12CC3CC(CC(C3)C1)C2
survivor count (dose: 150.0 mg/kg/injection, schedule: Q04DX004 (sc), vehicle: Klucel (hydroxypropylcellulose) (HPC)): 2 of 6 on day 15 | survivor count [1]: 0 of 6 on day 15

O=[n+]1c2ccccc2n([O-])c2ccccc21.[Cl][Ni][Cl]
T/C (dose: 37.5 mg/kg/injection, schedule: Q04DX004 (sc), vehicle: saline with Tween-80, evaluated on day 15): 133 % of control | survivor count (dose: 300.0 mg/kg/injection, schedule: Q04DX004 (sc), vehicle: saline with Tween-80): 0 of 6 on day 15

CC1(CO)C(O)CCC2(C)C1CCC1CC3CC12CCC3(O)CO (configuration not stated)
T/C (dose: 25.0 mg/kg/injection, schedule: Q01DX010 (sc), vehicle: saline with Tween-80, evaluated on day 11): 142 % of control | T/C (dose: 100.0 mg/kg/injection, schedule: Q01DX010 (sc), vehicle: saline with Tween-80, evaluated on day 11): 142 % of control | survivor count (dose: 200.0 mg/kg/injection, schedule: Q01DX010 (sc), vehicle: saline with Tween-80): 1 of 3 on day 11 | survivor count (dose: 400.0 mg/kg/injection, schedule: Q01DX010 (sc), vehicle: saline with Tween-80): 1 of 3 on day 11

C[PH+](C)C.C[PH+](C)C.[Au]
survivor count (dose: 40.0 mg/kg/injection, schedule: Q04DX004 (sc), vehicle: saline): 0 of 6 on day 15

C=Cc1cnc([N+](=O)[O-])n1C
survivor count (dose: 600.0 mg/kg/injection, schedule: Q04DX004 (sc), vehicle: Klucel (hydroxypropylcellulose) (HPC)): 1 of 6 on day 15 | survivor count (dose: 1200.0 mg/kg/injection, schedule: Q04DX004 (sc), vehicle: Klucel (hydroxypropylcellulose) (HPC)): 0 of 6 on day 15

BrCC[Se]c1ccccc1
T/C (dose: 200.0 mg/kg/injection, schedule: Q04DX004 (sc), vehicle: saline with Tween-80, evaluated on day 15): 129 % of control [5 of 6 alive on day 15] | survivor count (dose: 200.0 mg/kg/injection, schedule: Q04DX004 (sc), vehicle: saline with Tween-80): 0 of 6 on day 15 | survivor count (dose: 800.0 mg/kg/injection, schedule: Q04DX004 (sc), vehicle: saline with Tween-80): 0 of 6 on day 15 | survivor count (dose: 1600.0 mg/kg/injection, schedule: Q04DX004 (sc), vehicle: saline with Tween-80): 0 of 6 on day 15

Cc1cc(C)c(-c2cc(O)c(C)cc2O)c(C)c1
T/C (dose: 600.0 mg/kg/injection, schedule: Q04DX004 (sc), vehicle: Klucel (hydroxypropylcellulose) (HPC), evaluated on day 15): 128 % of control

O=C(Nc1nncs1)c1cccs1
survivor count (dose: 2400.0 mg/kg/injection, schedule: Q04DX004 (sc), vehicle: saline with Tween-80): 1 of 5 on day 15

CCOC(=O)C1=C(C#N)C2(CCC(OCc3ccccc3)CC2)C(=O)O1 (configuration not stated)
T/C (dose: 200.0 mg/kg/injection, schedule: Q04DX004 (sc), vehicle: suspension in saline, evaluated on day 15): 133 % of control | T/C (dose: 400.0 mg/kg/injection, schedule: Q04DX004 (sc), vehicle: suspension in saline, evaluated on day 15): 143 % of control

CCCNC1=C(C)C(=O)C2=C(C1=O)[C@H](COC(N)=O)[C@]1(OC)[C@@H]3N[C@@H]3CN21
survivor count (dose: 24.0 mg/kg/injection, schedule: Q04DX003 (sc), vehicle: saline): 1 of 6 on day 15 | survivor count (dose: 48.0 mg/kg/injection, schedule: Q04DX003 (sc), vehicle: saline): 0 of 6 on day 15

COc1ccc(C(N)=O)cc1N=NN(C)C
T/C (dose: 37.5 mg/kg/injection, schedule: Q04DX004 (sc), vehicle: Klucel (hydroxypropylcellulose) (HPC), evaluated on day 15): 128 % of control | survivor count [1]: 0 of 5 on day 15 and 0 of 6 on day 15

Nc1n[n+](-c2ccc(Cl)cc2)no1
survivor count (dose: 200.0 mg/kg/injection, schedule: Q04DX004 (sc), vehicle: water): 0 of 6 on day 15
